# Reference: paper PMC5996148
# Chains of the proteins cited; added tags and fusions are not shown. Lines headed by an entry give the natural chain unless they say otherwise; changes in a name come on top.
# UniProt Q9BRT6: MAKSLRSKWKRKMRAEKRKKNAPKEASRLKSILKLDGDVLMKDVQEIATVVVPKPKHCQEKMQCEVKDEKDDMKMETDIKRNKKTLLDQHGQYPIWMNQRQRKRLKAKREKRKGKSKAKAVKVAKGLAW
# Several values for one entry are separate records, joined by “and”; a condition that tells them apart may be missing. Equal values may be shown once. The list shows a part of the results. For some assays here: The source does not settle which construct or isoform was used.
# Experiments:
# Assay in all cases: protein microarray (ProtoArray v5.0), streptavidin-Alexa Fluor 647
# Conditions in all cases: 3'-biotin; 20 mM Tris (pH 7.5), 5 mM MgCl2, 100 mM KCl, 0.1% Tween-20, A/T-rich and random oligonucleotide blockers; temperature not stated; high values mean tight binding
# C11orf66 (human) = system: C11orf66 (human)
# C11orf70 (human) = system: C11orf70 (human)
# C11orf74 (human) = system: C11orf74 (human)
# C12orf10 (human) = system: C12orf10 (human)
# C12orf31 = C12orf31 (UniProt Q9BRT6)
# C12orf41 (human) = system: C12orf41 (human)
# C12orf48 (human) = system: C12orf48 (human)
# C14orf100 (human) = system: C14orf100 (human)
# C14orf119 (human) = system: C14orf119 (human)
# C14orf122 (human) = system: C14orf122 (human)
# C14orf130 (human) = system: C14orf130 (human)
# C14orf131 (human) = system: C14orf131 (human)
# C14orf159 (human) = system: C14orf159 (human)
# C14orf24 (human) = system: C14orf24 (human)
# C14orf45 (human) = system: C14orf45 (human)
# C15orf38 (human) = system: C15orf38 (human)
# C15orf41 (human) = system: C15orf41 (human)
# C16orf13 (human) = system: C16orf13 (human)
# C16orf30 (human) = system: C16orf30 (human)
# C16orf74 (human) = system: C16orf74 (human)
sequence,measurement,setting,value
GGGGACAGGGGTATGGGGAGGGG [G4-3 biotinylated (CtG)],binding signal,C11orf66 (human),-0.332 z-score
same,binding signal,C11orf70 (human),-0.313 z-score
same,binding signal,C11orf74 (human),-0.335 z-score
same,binding signal,C12orf10 (human),-0.314 z-score
same,binding signal,C12orf31,3.55 z-score
same,binding signal,C12orf41 (human),-0.323 z-score
same,binding signal,C12orf48 (human),-0.342 z-score
same,binding signal,C14orf100 (human),-0.329 z-score
same,binding signal,C14orf119 (human),-0.325 z-score
same,binding signal,C14orf122 (human),-0.332 z-score
same,binding signal,C14orf130 (human),-0.336 z-score
same,binding signal,C14orf131 (human),-0.313 z-score and -0.335 z-score
same,binding signal,C14orf159 (human),-0.319 z-score
same,binding signal,C14orf24 (human),-0.311 z-score
same,binding signal,C14orf45 (human),-0.326 z-score
same,binding signal,C15orf38 (human),-0.319 z-score
same,binding signal,C15orf41 (human),-0.322 z-score
same,binding signal,C16orf13 (human),-0.32 z-score
same,binding signal,C16orf30 (human),-0.329 z-score
same,binding signal,C16orf74 (human),-0.327 z-score

# Pulled one by one from the entries so far, 2 records:
sequence,measurement,setting,value
GGGGACAGGGGTATGGGGAGGGG [G4-3 biotinylated (CtG)],binding signal,C12orf31,3.55 z-score
same,binding signal,C11orf66 (human),-0.332 z-score
